Values of other authors as cited in paper PMC9861162 (Pharmaceuticals, 2022).

System: CYP3A4
Settings: cited from earlier work

COC(=O)C1=C(C)NC(C)=C(C(=O)OC)C1c1ccccc1[N+](=O)[O-] [Nifedipine]
fm (fraction metabolized): 0.96
